Assay results from patent US9694005B2, “Nonsteroidal and steroidal compounds with potent androgen receptor down-regulation and anti prostate cancer activity” (University of Maryland, Baltimore, priority 2013, dated 2017).
At least one structure is not confirmed: it was looked up by name or label, or the drawing left a doubt.

Assays:
LNCaP cells = assay: Cell growth inhibition (MTT colorimetric assay), LNCaP; format: cell-based, human; conditions: FIG. 5
Protocol: (§1) Compounds were evaluated on their ability to inhibit LNCaP cell (androgen sensitive AR-mutant), C4-2B and CWR22Rv1 (CRPC cell lines) viability at 1 and 10 μM concentrations by the MTT assy.
The cells were seeded in 96-well plates (Corning Costar) at a density of 5×10^3 cells per well. Cells were allowed to adhere to the plate for 24 hours and then treated with various concentrations of compounds dissolved in 95% EtOH. Cells were treated for 7 days with renewal of test compound and media on day 4. On the 7th day, medium was renewed and MTT (3-(4,5-dimethylthiazol-2-yl)-2,5-diphenyl-2H-tetrazolium bromide) (Sigma, St Louis, Mo., USA) solution (0.5 mg MTT per ml of media) was added to the medium such that the ratio of MTT: medium was 1:10. The cells were incubated with MTT for 2 hours. The medium was then aspirated and DMSO was added to solubilize the violet MTT-formazan product. The absorbance at 562 nm was measured by spectrophotometry (Biotek Inc.).

[1] = tested on: LNCaP cell, C4-2B and CWR22Rv1; assay: Cell growth inhibition (MTT), anticancer activity, cell line not given; format: cell-based, human; conditions: cell line not stated
Protocol: as §1

AR protein = target: T1, AR protein (Homo sapiens, UniProt P10275, T878A); assay: Western blotting, AR protein levels in LNCaP cells; format: cell-based; conditions: 15 μM of each compound for 24 h (FIG. 8)
T1 construct: Effect of compounds on suppression of AR protein levels in LNCaP cells; endogenous in cells; host or cells: LNCaP
T1 sequence (P10275 1-920 T878A): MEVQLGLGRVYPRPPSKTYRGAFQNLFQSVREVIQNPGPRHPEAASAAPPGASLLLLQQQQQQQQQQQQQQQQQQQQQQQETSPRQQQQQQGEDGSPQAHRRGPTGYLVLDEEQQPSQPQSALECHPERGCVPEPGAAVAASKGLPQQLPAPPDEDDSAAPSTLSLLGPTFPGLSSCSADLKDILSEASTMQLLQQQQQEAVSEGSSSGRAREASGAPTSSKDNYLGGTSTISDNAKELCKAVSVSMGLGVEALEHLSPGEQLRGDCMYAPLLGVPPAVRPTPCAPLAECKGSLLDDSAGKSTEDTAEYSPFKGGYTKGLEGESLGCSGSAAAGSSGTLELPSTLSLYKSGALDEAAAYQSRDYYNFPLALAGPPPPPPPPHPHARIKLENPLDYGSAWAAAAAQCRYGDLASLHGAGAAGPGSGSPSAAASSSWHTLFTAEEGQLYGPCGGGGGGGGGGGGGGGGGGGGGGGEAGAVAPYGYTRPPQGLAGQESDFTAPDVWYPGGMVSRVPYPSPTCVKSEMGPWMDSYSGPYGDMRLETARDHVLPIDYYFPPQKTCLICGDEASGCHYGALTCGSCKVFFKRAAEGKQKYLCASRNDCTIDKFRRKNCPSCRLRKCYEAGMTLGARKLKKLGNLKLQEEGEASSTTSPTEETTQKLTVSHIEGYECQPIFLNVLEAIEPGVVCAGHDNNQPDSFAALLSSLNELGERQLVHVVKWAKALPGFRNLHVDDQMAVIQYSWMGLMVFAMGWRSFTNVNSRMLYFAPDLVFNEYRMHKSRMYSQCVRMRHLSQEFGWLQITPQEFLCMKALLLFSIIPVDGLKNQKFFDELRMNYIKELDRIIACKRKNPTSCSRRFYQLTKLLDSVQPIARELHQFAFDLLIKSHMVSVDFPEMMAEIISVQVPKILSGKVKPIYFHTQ
Protocol: The ability of various compounds to down-regulate AR protein expressions was determined by western blotting.

[2] = tested on: full length AR and the splice variants ARs; assay: AR down-regulation in CWR22Rv1 (FIGS. 9D, 9E, 9F); format: cell-based, human; conditions: 9E and 9F
Protocol: In the experiments show in FIG. 9, LNCaP and CWR22Rv1 cells were treated VN/124-1 and analogs at varying time points and effects on significant cancer cells promoting genes investigated at the protein level.

## COc1cccc(-c2ccc(Cn3cnc4ccccc43)cc2)c1 [VNPP347B, 3-[4-(benzimidazolylmethyl)phenyl]-1-methoxybenzene]
LNCaP cells
  Antiproliferative / anticancer activity against LNCaP cell line compared with VN/124-1: more potent anticancer activity in comparison to compound VN/124-1

## Oc1ccc2cc(-c3cccc(-n4cnc5ccccc54)c3)ccc2c1 [VNPP372/2, 6-(3-benzimidazolylphenyl)naphthalen-2-ol]
LNCaP cells
  Antiproliferative / anticancer activity against LNCaP cell line compared with VN/124-1: more potent anticancer activity in comparison to compound VN/124-1

## Oc1cccc(-c2ccc(Cn3cnc4ccccc43)cc2)c1 [VNPP356, 3-[4-(benzimidazolylmethyl)phenyl]phenol]
LNCaP cells
  Antiproliferative / anticancer activity against LNCaP cell line compared with VN/124-1: as potent as compound VN/124-1
[1]
  Anticancer activity (SAR statement): equal potent anticancer activity to compound VN/124-1
AR protein
  AR down-regulating action (AR protein levels, western blot): potent AR down-regulating agents
[2]
  AR down-regulation against full length AR and the splice variants ARs: showed activity (AR down-regulation)

## O=C(O)c1cccc(-c2ccc(Cn3cnc4ccccc43)cc2)c1 [VNPP360, 3-[4-(benzimidazolylmethyl)phenyl]benzoic acid]
[2]
  AR down-regulation against full length AR and the splice variants ARs: showed activity (AR down-regulation)

## N#Cc1cccc(-c2ccc(Cn3cnc4ccccc43)cc2)c1 [VNPP358, 3-[4-(benzimidazolylmethyl)phenyl]benzenecarbonitrile]
LNCaP cells
  Antiproliferative / anticancer activity against LNCaP cell line compared with VN/124-1: as potent as compound VN/124-1
[1]
  Anticancer activity (SAR statement): moderately acting
AR protein
  AR down-regulating action (AR protein levels, western blot): AR up-regulators
